{"source": "PubChem BioAssay AID1508600", "about": "(Functional Genomics Laboratory (NCATS/FGL), 2020)", "note": "About 3,700 (7%) of roughly 53,000 sequences were called active.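 The calls were made as follows: active = gene knockdowns whose robust z-score for IL-1 alpha signal is at least 2 or at most -2, so actives lie on both sides; inactive = the rest.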 This is one part of the list."}
{"experiment": "Components of the Cytosolic LPS Sensing Pathway: Gene Identification via Genome-wide siRNA Screen;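 also: robust z of the log signal after scaling to non-targeting control siRNA wells of the plate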", "details": "RAW264.7 macrophages, IL-1a HTRF, actives lie on both sides, screened at 100 nM (by protocol), cells primed 5 h with Pam3CSK4 first", "procedure,_shortened": "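RAW264.7 mouse macrophages reverse-transfected with single siRNAs (100 nM final) for 48h, primed with Pam3CSK4 for 5 hours, then transfected with LipidA for 24 hour. Supernatant IL-1a read by HTRF; values normalized to negative-control median, log-transformed robust z-scores.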"}
{"sequence": "CGCAUCCAAGCUGAUAAAGTT against Stoml3", "z-score": "inactive: -0.406"}
{"sequence": "GGAAAAGUUAGCGUGUAAUTT against Prkcz", "z-score": "inactive: -1.66"}
{"sequence": "GGCUGGCUGGAAAAAAGGUTT against Gzf1", "z-score": "inactive: -0.708"}
{"sequence": "GCCUGGUUACAGCAUUAACTT against Rimkla", "z-score": "inactive: -1.75"}
{"sequence": "GGACAGACAGGUCUAGUUATT against Brsk1", "z-score": "inactive: 0.976"}
{"sequence": "CCUUUUAUGCUAGUACUGATT against Olfr1504", "z-score": "inactive: -1.53"}
{"sequence": "GCUGAGAAUGUGGUAACAGTT against Dnaaf6", "z-score": "inactive: -0.847"}
{"sequence": "GCCCUCAGGUGGUUCUUAATT against Heatr3", "z-score": "inactive: 0.443"}
{"sequence": "GCUAGACCAACCUGAUUGGTT against Necap1", "z-score": "inactive: -1.15"}
{"sequence": "GGUUCCUGACCACUGGUACTT against Gstt1", "z-score": "inactive: -0.493"}
{"sequence": "GGCUUGUCAGUGCAUCUCATT against Kif9", "z-score": "inactive: -0.683"}
{"sequence": "GCGUGACCAUUAUUUCCUGTT against Vrtn", "z-score": "inactive: 0.983"}
{"sequence": "CCACAAUAGCUCGAACCAUTT against Endov", "z-score": "inactive: -0.919"}
{"sequence": "GCAAUAAUCGUUCUCAAAATT against Prkab1", "z-score": "inactive: 1.5"}
{"sequence": "CCUGCUUGUCUCAAUAGUUTT against Krtap3-2", "z-score": "inactive: -0.518"}
{"sequence": "GGAGAAAGUGGACCUUUUGTT against Etfb", "z-score": "inactive: -1.26"}
{"sequence": "GCCUUAAUUAAACACGGCCTT against Rbck1", "z-score": "inactive: -0.492"}
{"sequence": "GCUCUUAUACGCCUAGGUATT against Upk1a", "z-score": "inactive: -0.166"}
{"sequence": "GGCCAUCUCAUUUUCAGGGTT against Olfr749", "z-score": "inactive: 0.286"}
{"sequence": "GGCACCAGUAUCAGCCUUUTT against Mrpl15", "z-score": "inactive: 0.637"}
{"sequence": "GGUGCAUAAAUAAAUUCCUTT against B230317F23Rik", "z-score": "inactive: 0.586"}
{"sequence": "GGGCAACAUGUCACUGAUCTT against Pgbd5", "z-score": "inactive: -0.0682"}
{"sequence": "GGCUUACGUGGUGUGCACUTT against Galr1", "z-score": "inactive: 0.345"}
{"sequence": "GGAGAUUCACCCUGAGUGUTT against Gtf3c1", "z-score": "inactive: -1.87"}
{"sequence": "GGAAGUUCCACGUUAUUGUTT against Eif2b2", "z-score": "inactive: -1.3"}
{"sequence": "GCUGGUCAAGUCCUUCUAGTT against Mrpl28", "z-score": "inactive: -0.694"}
{"sequence": "GGGAUUCUUACUCAGACGCTT against Bmf", "z-score": "inactive: 0.297"}
{"sequence": "CGCUUGUCUAGGGUACAAATT against Daam1", "z-score": "inactive: 1.07"}
{"sequence": "CCGCUGCAUAGCAUGUACATT against Dusp23", "z-score": "inactive: 0.901"}
{"sequence": "GGAACCUUCACGAUAACAGTT against 2810407A14Rik", "z-score": "inactive: 0.682"}
{"sequence": "CCUGGAGAAUUCGAAAAAATT against Grm8", "z-score": "inactive: 0.606"}
{"sequence": "GGAAAUUAUCAAAGUGACATT against Camk2a", "z-score": "inactive: -1.65"}
{"sequence": "CCAGCCAUCUGCCAGUAUATT against Gm5148", "z-score": "inactive: 0.253"}
{"sequence": "GGACAAUUACAUCCAGCCUTT against 2610528J11Rik", "z-score": "active: -2.11"}
{"sequence": "GAUCAACCUGAGCUCCAGUTT against Olfr25", "z-score": "active: 2"}
{"sequence": "GCACUUAUGAUGUCCUAUUTT against Sema4b", "z-score": "inactive: 0.606"}
{"sequence": "GGAAAAUGAAAUCAUCGAGTT against Fuca1", "z-score": "inactive: -0.987"}
{"sequence": "GGUGCUGAUGAUGAUUAAATT against Cuta", "z-score": "inactive: 0.84"}
{"sequence": "GCACAACAUGGAUUGGAAATT against Dhps", "z-score": "inactive: -0.0955"}
{"sequence": "CCUUUCACACGUCAUCAGUTT against Trpc2", "z-score": "inactive: -0.972"}
{"sequence": "GGCUCACCUGAUACACUUUTT against Ramp2", "z-score": "inactive: 0.707"}
{"sequence": "GGCAUCCUUGGUGUUUGUATT against Ncapg2", "z-score": "inactive: 0.221"}
{"sequence": "GGUGGGUACUGAAAGCCCATT against Ubqlnl", "z-score": "inactive: 0.666"}
{"sequence": "GGACUUCAGCGAAUUUGACTT against Ube4a", "z-score": "inactive: -1.09"}
{"sequence": "GCAACUGAAUUCCAGUUUUTT against Ugt1a2", "z-score": "inactive: -0.0905"}
{"sequence": "CCGUAUUAUUGGAAGCGGCTT against Ldhal6b", "z-score": "inactive: 1.15"}
{"sequence": "GCUAAAUCAAGGAGACUAUTT against Art4", "z-score": "inactive: 0.817"}
{"sequence": "GGCUAACCGAAGCCAUCCUTT against Tceal9", "z-score": "inactive: 0.969"}
{"sequence": "GGAUAGUGUUUCACUGUUATT against Igfals", "z-score": "inactive: -0.889"}
{"sequence": "GGAGAUGGCCGACUUCUAUTT against Coa8", "z-score": "inactive: 0.934"}
{"sequence": "GGGAAGUUCAGUUCAAUACTT against Hps4", "z-score": "inactive: 1.11"}
{"sequence": "GGAGAACACAAGAUUUAAATT against Ablim3", "z-score": "inactive: 0.532"}
{"sequence": "GGCGAAUGUUUACGAGAACTT against Sh2d1b2", "z-score": "inactive: 0.327"}
{"sequence": "UGUAUAGCUAUGACCCUGCTT against AI413582", "z-score": "inactive: -1.8"}
{"sequence": "GGCAUUACCAAUUUUUGUATT against Tada2a", "z-score": "inactive: 0.56"}
{"sequence": "GAGCAUAGAAACCAUGCACTT against Acot2", "z-score": "inactive: -0.621"}
{"sequence": "GGAUGUACAAGAAAAGUAUTT against Ccr3", "z-score": "inactive: 1.01"}
{"sequence": "CCGCAUGACACGACAUGUATT against Cd300e", "z-score": "inactive: 0.847"}
{"sequence": "CCCAAGAUGGUUUUAAGUUTT against Met", "z-score": "inactive: 0.483"}
{"sequence": "GCCUGUCCACAUCACUGUATT against Tmem171", "z-score": "inactive: -0.16"}
{"sequence": "GGAAAAUUUACACUGACCUTT against Gimap7", "z-score": "inactive: -0.377"}
{"sequence": "CCGUUCUGGCACAGAACAGTT against A830005F24Rik", "z-score": "inactive: 1.41"}
{"sequence": "GGAGGCAAUUCAGAAGUGGTT against Ttc33", "z-score": "inactive: -0.452"}
{"sequence": "GGUGAAAAGUCCUGCCAAGTT against Nefh", "z-score": "inactive: 0.408"}
{"sequence": "GCCAACGAGAUUUGUAACATT against Dr1", "z-score": "inactive: -0.631"}
{"sequence": "GGAGAUAUCCAUCAAUAGUTT against Nbr1", "z-score": "inactive: 0.874"}
{"sequence": "GAGGGAAACUAUUCUAGACTT against H2al2a", "z-score": "inactive: 1.64"}
{"sequence": "GCUUAUAAGAGUCUAUCUUTT against Stam", "z-score": "inactive: -0.217"}
{"sequence": "GGAGAGGUCAGAUAGAAAUTT against Zbtb41", "z-score": "active: -2.29"}
{"sequence": "GGAAAGUGAUUGUUGGAGCTT against Fpr-rs3", "z-score": "inactive: -1.19"}
{"sequence": "GGAGAAAUCUCAAAGAUCUTT against Daw1", "z-score": "inactive: 0.867"}
{"sequence": "GGCCUUCAGAAAGUCCUUGTT against Car2", "z-score": "inactive: -0.242"}
{"sequence": "GCUAUAAGAGAGCUAGACATT against Lrrc40", "z-score": "inactive: -0.614"}
{"sequence": "CGCUCUCUCUACAAAGGAUTT against A230052G05Rik", "z-score": "inactive: 0.984"}
{"sequence": "GGAGCACAAAAAUCAGACATT against Ino80b", "z-score": "inactive: -1.13"}
{"sequence": "GCAUGUGGCUAACUUCAAATT against 4933411G06Rik", "z-score": "inactive: 0.839"}
{"sequence": "GGGCAAAAAGUGCAUCCGGTT against Ccn2", "z-score": "inactive: 0.116"}
{"sequence": "GGCUCUUCCAACAGUUCUUTT against Grk1", "z-score": "active: 2.07"}
{"sequence": "GGUCUGUCUCCAGAUUGCUTT against Olfr56", "z-score": "inactive: -1.73"}
{"sequence": "CGAACCAUUUCGUAAAGUUTT against Dclk2", "z-score": "inactive: 0.595"}
{"sequence": "GCCACCUCAAAUAACCGUCTT against Lat", "z-score": "inactive: 1.17"}
{"sequence": "GCUUUCAGCUAUUGGACCCTT against Kl", "z-score": "inactive: 0.0919"}
{"sequence": "CCUUUUUGACAUUGUGAUUTT against Nt5dc1", "z-score": "inactive: -0.896"}
{"sequence": "GGGUUAACUUUUACUAUGGTT against Olfr570", "z-score": "inactive: -0.537"}
{"sequence": "CCCUAAGAGUCACCAAAAUTT against Nos2", "z-score": "active: -2.19"}
{"sequence": "GGAAACAAAGUCAAUGUGGTT against Cnn1", "z-score": "inactive: -0.522"}
{"sequence": "GGGUACUGUAAAUUGGUCUTT against Kpna2", "z-score": "inactive: -0.274"}
{"sequence": "GCAUAACAGAGUCAAUACATT against Ints8", "z-score": "inactive: 1.12"}
{"sequence": "GGUAGAUGACUUUGACAACTT against Tnfsf9", "z-score": "inactive: 0.633"}
{"sequence": "GGGAAUUGCCAACUUGUUCTT against Olfr639", "z-score": "inactive: -0.75"}
{"sequence": "GCAGUUCUACUCUUACACCTT against Xylt1", "z-score": "inactive: 0.226"}
{"sequence": "GGCACAAAUUUUAUGCCUGTT against Xkr8", "z-score": "inactive: -0.134"}
{"sequence": "GGGCAAUCGACUGAGAAUUTT against Lingo4", "z-score": "inactive: -0.0246"}
{"sequence": "GGGAAGCUAGGCACUUCAUTT against Plk4", "z-score": "inactive: 0.34"}
{"sequence": "CCAACUCUAUCGUACUAAATT against Tafa5", "z-score": "inactive: 0.0774"}
{"sequence": "CGGAAUUAUGAUCAUUGAGTT against Bbx", "z-score": "inactive: -0.37"}
{"sequence": "GGUGUACGGUAUUUUGUUUTT against Radx", "z-score": "inactive: -0.106"}
{"sequence": "GGAGCAUGGUUUUAUAAUATT against Rims2", "z-score": "inactive: 0.899"}
{"sequence": "GGUCUUCAACCCUGUUUGGTT against Gpsm3", "z-score": "inactive: 0.329"}
{"sequence": "CGACAGUCUAGCAUGUAACTT against Best1", "z-score": "inactive: 0.425"}
{"sequence": "GCCAAAACAAGUAUGCCCUTT against Vwa3b", "z-score": "inactive: 0.41"}
{"sequence": "GGAAGACAAAGAUUCUAGUTT against Abcc1", "z-score": "inactive: -1.06"}
{"sequence": "GGCUGUGGUCAAGAUCAAGTT against Atp2b2", "z-score": "inactive: 0.0323"}
{"sequence": "GGAUAAUAAUCACUACAUGTT against Mov10l1", "z-score": "inactive: 0.873"}
{"sequence": "GGUCCACAGUACCACAUAATT against Tespa1", "z-score": "active: -3.2"}
{"sequence": "CCGUGUGGAAAAUAAAUUATT against 1700013G24Rik", "z-score": "inactive: -0.405"}
{"sequence": "CCAGACAUUGUCUUUAUGGTT against Xrn1", "z-score": "inactive: 0.147"}
